Experimental findings from patent EP4450494A1, “INDOLE DERIVATIVES AS HISTONE DEACETYLASE (HDAC) INHIBITORS FOR THE TREATMENT OF CANCER” (Consejo Superior De Investigaciones Científicas, priority 2023, dated 2024) are described below.

Common to all, as to assay type: cell-based
One assay has as its system U251. The experiment in a line: MTT cell viability assay in U251. Conditions: Homo sapiens, U-251, MTT assay after 72 h of treatment. The protocol:
(§1) As a first screening, dose-response assays were done in U87 glioblastoma cell line in order to obtain the IC50 values of the different compounds. Cells were seeded at a density of 1.500 cells/well in 96-well plates, incubated overnight and treated with increasing concentrations of the corresponding compounds. After 72 h of treatment, cell viability was determined by MTT assay. For this, MTT was added to the wells and cells were incubated for 3,5 h at 37 °C and 5% CO2. Then, media was removed and DMSO was added to resuspend the formed crystals. Absorbance at 570 nm was measured using a spectrophotometer, and GraphPad Prism software was used to analyze the results and calculate the IC50 values.
(§2) First, we tested if the effect of the compound in cell viability was exclusive to U87 cell line or if it was repeated in other glioblastoma cell lines. With this aim, additional MTT assays were carried out following the same protocol in other glioblastoma conventional (U251) and patient-derived (GNS179) cell lines. Moreover, in order to compare the potential of our compound with other pan-inhibitors, MTT assays were also carried out for SAHA. […] Table 1. Comparison of IC50 values of DDI199 and pan-inhibitor SAHA in conventional (U87 and U251) and patient-derived (GNS179) cell lines.

In a further assay the test system is GNS179. The experiment in a line: MTT cell viability assay in GNS179. Conditions: GNS179 (patient-derived); MTT assay after 72 h of treatment. Here is the method: as §1, §2
On the technique in general: Tetrazolium assays rely on reduction of a dye to a coloured formazan, in cell work by metabolically active cells.

The test system of assay [1] is U87 glioblastoma cell line. Put plainly: MTT cell viability dose-response assay in U87. The following applies: MTT assay after 72 h of treatment. Here is the method:
as §1

Each structure is given as a SMILES string.

For orientation: IC50 means the concentration needed to halve the response being measured. Read a high IC50 as a need for much substance. In the case of `O=C(CCCCCCC(=O)Nc1ccccc1)NO` [SAHA, suberoylanilide hydroxamic acid, reference compound], the figures for the IC50 (with U251; with GNS179; in assay [1]) were 16 µM, 5.02 µM and 6.76 µM, respectively.
